Measured values taken from publication PMC8466300, “Investigating the Central Nervous System Disposition of Actinomycin D: Implementation and Evaluation of Cerebral Microdialysis and Brain Tissue Measurements Supported by UPLC-MS/MS Quantification” (Pharmaceutics, 2021).
*1 amine or outer side, *2 acyl side, *3 side chain or, on linkers, in order; H or OH if unused. Where a SMILES comes first, the peptide text is derived from it. Bridges are numbered along the chain shown (N, C = ends). Roman numbers before positions name the chains, in order. [ ]: non-standard residue; d: D form. Actinocin(9to1) = Cc1c2oc3c(C)ccc(C(=O)[*:1])c3nc-2c(C(=O)[*:2])c(N)c1=O; NMeV = CN[C@H](C(=O)O)C(C)C; Sar = CNCC(=O)O

Assay: In vitro retrodialysis recovery of microdialysis probes

Compound	in vitro retrodialysis coefficient (recovery rate) (actinomycin C used for probe calibration, 1 % BSA, mean of 2 probes) [%]	in vitro retrodialysis recovery rate (actinomycin C, 1 % BSA, Probe 1) [%]	in vitro retrodialysis recovery rate (actinomycin C, 1 % BSA, Probe 2) [%]	in vitro retrodialysis recovery rate (100 ng/mL stock in 1% BSA Ringer, Probe 1) [%]	in vitro retrodialysis recovery rate (100 ng/mL stock in 1% BSA Ringer, Probe 2) [%]	in vitro retrodialysis recovery rate (100 ng/mL stock in 1% BSA Ringer, Probe 3) [%]	in vitro retrodialysis recovery rate (100 ng/mL stock in 1% BSA Ringer, Probe 4) [%]	in vitro retrodialysis recovery coefficient (recovery rate) (CMA7 1 mm PES probe, 55 kDa, 0.5 µL/min, 100 ng/mL stock in 1% BSA Ringer, mean of 4 probes) [%]	RD recovery rate, probe comparison (probe CAM7 (Cat.No. 8012411), polyethersulfone, MWCO 55kDa, n = 2) [%]	RD recovery rate, probe comparison (probe CMA8 (Cat.No. 8012201), polyacrylethersulfone, MWCO 20kDa, n = 1) [%]	RD recovery rate, probe comparison (probe MD-2211, cellulose, MWCO 35kDa, n = 5) [%]
Actinomycin C	87.6 ± 0.5	87.9	87.2	–	–	–	–	–	–	–	–
Cc1c2oc3c(C)ccc(C(=O)N[C@@H]4C(=O)N[C@H](C(C)C)C(=O)N5CCC[C@H]5C(=O)N(C)CC(=O)N(C)[C@@H](C(C)C)C(=O)O[C@@H]4C)c3nc-2c(C(=O)N[C@@H]2C(=O)N[C@H](C(C)C)C(=O)N3CCC[C@H]3C(=O)N(C)CC(=O)N(C)[C@@H](C(C)C)C(=O)O[C@@H]2C)c(N)c1=O [actinomycin D, Actinomycin D] (I: T[dV]P[Sar][NMeV] / II: T[dV]P[Sar][NMeV]; ester I:1-I:C, II:1-II:C; linker I:N-II:N via Actinocin(9to1))	–	–	–	87.0	77.1	89.5	84.5	84.5 ± 5.4	81.6 ± 9.9	88.83	79.4 ± 2.8
